# PubChem BioAssay AID686938, Drosophila RNAi Screening Center – 2013
# Screen: 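Looking for CRAC channel components and the factors controlling them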 (primary screen)
# System: Drosophila S2R+ cells
# Reagent: long dsRNA against Drosophila genes, about 0.25 µg dsRNA per well, roughly 10,000 cells
# Timing: 5 days of knock-down before the calcium assay
# Conditions: thapsigargin (SERCA pump blocker) to empty calcium stores; entry signal taken 4 min after adding it
# Measurement: 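Per-well fluo-4 fluorescence in two replicates, unnormalised, measured in resting cells and 4 min after store depletion by the SERCA blocker thapsigargin; ratio of the two present in few wells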
# Scale: calcium entry signal: higher = stronger calcium signal after store depletion; entry to resting ratio: higher = more calcium entry relative to resting level; resting calcium signal: higher = higher resting calcium signal
# Active means: 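Called when the plate z-score of the entry-to-rest ratio, mean of duplicates, falls below −3; wells with low overall dye signal (Fmax z below −2) or more than five off-targets excluded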
# Meaning of the calls: active = strongly reduced calcium entry; inactive = no strong reduction
# In all, the deposit lists about 23,000 reagents; this is a random part of those with a known target gene and a result. Of all reagents, 75 (0.33%) were called active. 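Raw plate signals without normalisation; calls rest on plate z-scores that were not deposited; ratio present for only 364 wells.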 Unmarked entries are inactive. Reagents against one gene are numbered here. A plus sign joins genes that one reagent is predicted to hit. The record does not give: the dose of the treatment.
Target gene,reagent no.,"calcium entry signal, replicate 1 (fluorescence units)","calcium entry signal, replicate 2 (fluorescence units)",entry to resting ratio,"resting calcium signal, replicate 1 (fluorescence units)","resting calcium signal, replicate 2 (fluorescence units)"
CG9676 (GeneID 32647),1,3.00e7,3.18e7,,1.50e7,1.32e7
CG2209 (GeneID 32250),1,3.10e7,5.86e7,,1.57e7,2.68e7
Sik2 (GeneID 31170),1,5.68e7,6.01e7,2.2,2.57e7,2.37e7
CG9518 (GeneID 32416),1,3.19e7,3.02e7,,1.71e7,1.47e7
CG7342 (GeneID 42335),1,3.15e7,2.90e7,,1.58e7,1.32e7
Mhcl (GeneID 41955),1,2.33e7,2.30e7,,1.09e7,1.04e7
Mhcl (GeneID 41955),2,3.89e7,4.95e7,,1.75e7,7.34e7
Mhcl (GeneID 41955),3,3.34e7,5.27e7,,1.65e7,6.48e7
GstT4 (GeneID 32299),1,4.14e7,3.94e7,,1.85e7,1.80e7
CAH14 (GeneID 37359),1,5.03e7,5.06e7,,2.45e7,2.15e7
CAH14 (GeneID 37359),2,3.11e7,4.43e7,,1.64e7,2.30e7
CG2147 (GeneID 31759),1,2.43e7,2.67e7,,1.20e7,1.31e7
CG31650 (GeneID 326150),1,3.90e7,3.32e7,,2.19e7,1.67e7
CG43095 (GeneID 12798518),1,5.00e7,3.13e7,,2.22e7,1.67e7
beta-PheRS (GeneID 42888),1,2.92e7,2.53e7,,1.47e7,1.28e7
mey (GeneID 43715),1,4.27e7,4.94e7,,1.82e7,2.09e7
Art3 (GeneID 41837),1,3.28e7,4.35e7,,1.52e7,1.81e7
CG40298 (GeneID 3355149),1,2.42e7,3.15e7,,1.17e7,1.43e7
Gr98a (GeneID 43305),1,6.07e7,3.16e7,,2.96e7,1.67e7
Obp83b (GeneID 40738),1,4.20e7,2.81e7,,2.03e7,1.40e7
RpL21 (GeneID 35453),1,1.41e7,1.22e7,,9.84e6,8.99e6
CG32462 + asRNA:CR43426,1,2.64e7,3.95e7,,1.30e7,2.65e7
Ufd1 (GeneID 39254),1,3.91e7,2.88e7,,2.59e7,1.35e7
CG4036 (GeneID 34302),1,5.00e7,,,2.30e7,
